Results from article PMC7862700.
The entries are a selection whose mix differs from that of the whole data set. At the low end of the ranking, values are background and their order means little.

Target: SPI1 (UniProt P17947)
Test: DAPPL (digital affinity profiling via proximity ligation, sequencing)
Conditions: 10 mM Tris-HCl pH 7.5, 50 mM NaCl, 1 mM DTT, 4% glycerol, room temperature, 30 min; GST-TFs on glutathione beads, 16-mer random dsDNA library, 0.1% …; high values mean tight binding; double strand, one strand shown; scale: fold enrichment (6-mer frequency, TF over GST control)

Sequence | binding signal
AGACCC | 0.64
CGGAGA | 0.201
GGGAGT | 0.208
TCGTGG | 0.702
GGAGTG | 0.413
AGGCAA | 0.683
CAGGTC | 0.681
CGCATC | 0.909
AGTCGT | 0.419
TAGGTG | 0.83
GCAGGC | 0.719
TCGTGA | 0.306
GACTAA | 0.804
GGAAGG | 0.813
ATCGGT | 0.644
GGAACG | 0.62
GCGAGG | 0.628
GCATCG | 0.833
GAGGCG | 0.355
CGGGAG | 0.189

Sequence | binding signal
TGAGTA | 0.452
AGCAAG | 0.886
AAGGCG | 0.663
GGTCGT | 0.661
GAAGGA | 0.747
CCCAGG | 0.682
ATGAGA | 0.825
AGAGTA | 0.741
GTTAGA | 0.776
GTGTGA | 0.627
GCGCAT | 0.832
GGCCAC | 0.867
GGCAGG | 0.588
GTGAAT | 0.94
CCGTGT | 0.465
GAGCCC | 0.725
GCGGAC | 0.671
GAGACA | 0.39
GCAGTC | 0.481
AGTCTG | 0.686

Some values from the results shown:
binding signal with AGCAAG is entered as 0.886
binding signal with CGGGAG is entered as 0.189
